Consider 1 substance from US20120251495A1, “PTERIN BASED THERAPIES FOR INFLAMMATORY CONDITIONS” (priority 2008, published 2012).

The test system of this data set is plasma cytokines. Briefly: Plasma cytokine levels by ELISA (LINCOplex), 1st experiment. It is filed as in vivo, athymic nude (nu/nu) mice. Conditions: ACIP stepwise regression. The protocol: Cytokine levels in EDTA plasma from the mice in the 1st experiment were determined by ELISA assay at Alta Analytical Laboratories (San Diego, Calif.) using a LINCOplex Kit (Linco Research). Tryptophan (Trp) and kynurenine (Kyn) concentrations were measured from EDTA plasma samples by high pressure liquid chromatography (HPLC) using 3-nitro-L-tyrosine as the internal standard (Widner et al., 1997). To estimate IDO activity, the kynurenine to tryptophan ratio (Kyn/Trp) was calculated and expressed as μmol kynurenine/mmol tryptophan (Wirleitner, 2003). The values from five mice in the 1st experiment are not included in the summary statistics given in Table 1 for the following reasons. One mouse from each of the four treatment groups was used to test the effects of mega dosing, i.e., with (1:4 mol:mol) calcium pterin at 100 mg/kg/day after Day 60 of treatment, and are excluded. Also excluded was one mouse from the (1:4 mol:mol) calcium pterin (7 mg/kg/day) group which expired suddenly a few days before blood was collected. Cytokine measurements <3.2 pg/ml are reported as n.d. (not detectable) because the standard curves used in the ELISA assays were not calibrated below that level.
Cytokine levels in EDTA plasma from the mice in the 1st experiment were determined by ELISA assay at Alta Analytical Laboratories (San Diego, Calif.) using a LINCOplex Kit (Linco Research).
Cytokine levels in EDTA plasma from the mice in the 2nd experiment were measured at the UCSD Core Laboratory (San Diego, Calif.) using a multiplex assay kit for IL-1β, IL-2, IL-4, IL-5, IL-10, IL-12, IFN-γ, TNF-α and single ELISA kits for IL-6 and TGF-β1 by R&D Systems. EDTA plasma samples from two of the three ungavaged controls were lost due to handling error. For both the 1st and 2nd experiments, those measured cytokine values falling below the limits of detection were set to the higher assay limit for the purposes of the subsequent statistical analyses, and recorded as n.d. (not detectable) in Tables 1 through 3.
On the technique in general: An ELISA detects its analyte on a solid surface through an enzyme-linked reagent.

In the case of (1:4 mol:mol) calcium pterin [CaPterin], the “Regression Model Coefficient, dose versus Plasma IFN-γ” value is recorded as −3.16; the “Regression Model Coefficient, dose versus Plasma IL-10” value is given as 0.31; the “Standard Regression Coefficient, dose versus Plasma IFN-γ” value is recorded as −0.33; the “Standard Regression Coefficient, dose versus Plasma IL-6” value was −0.98. Also, the “Standard Regression Coefficient, dose versus Plasma IL-10” value is given as 1.54. Besides, where the note is “p = .047”, the “Regression Model Coefficient, dose versus Plasma IL-6” value is on record as −0.096.
